Results from the supplement of paper PMC4604168 (melanoma cell lines).
The list shows a part of the results. Repeats are few or missing, and single values can be far off.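 The apoptosis fraction was the count of cleaved-PARP antibody-stained nuclei relative to all DNA-stained nuclei, imaged in 1,536-well plates. Screening doses were set so most cells survived, and baseline and induced cleaved-PARP levels vary greatly across cell lines.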

What follows are compounds tested on SkMel28 (assay: cleaved PARP positive nuclei fraction relative to DMSO control; melanoma cells; higher = more apoptosis). Settings: library dose: low library concentration; 72 h.
With `CO[C@H]1C[C@@H]2CC[C@@H](C)[C@@](O)(O2)C(=O)C(=O)N2CCCC[C@H]2C(=O)O[C@H]([C@H](C)C[C@@H]2CC[C@@H](OCCO)[C@H](OC)C2)CC(=O)[C@H](C)/C=C(\C)[C@@H](O)[C@@H](OC)C(=O)[C@H](C)C[C@H](C)/C=C/C=C/C=C/1C` [everolimus] + Cn1cncc1[C@@](N)(c1ccc(Cl)cc1)c1ccc2c(c1)c(-c1cccc(Cl)c1)cc(=O)n2C [tipifarnib] (first compound 0.02 µM, partner dose 0.01 µM) the “cleaved PARP positive nuclei fraction” value was 367%. With `CO[C@H]1C[C@@H]2CC[C@@H](C)[C@@](O)(O2)C(=O)C(=O)N2CCCC[C@H]2C(=O)O[C@H]([C@H](C)C[C@@H]2CC[C@@H](OCCO)[C@H](OC)C2)CC(=O)[C@H](C)/C=C(\C)[C@@H](O)[C@@H](OC)C(=O)[C@H](C)C[C@H](C)/C=C/C=C/C=C/1C` [everolimus] + NCC(=O)Nc1ccc(-n2nc(C(F)(F)F)cc2-c2ccc3c(ccc4ccccc43)c2)cc1 [OSU03012] (first compound 0.02 µM, partner dose 1 µM) the “cleaved PARP positive nuclei fraction” value was 93.4%. With `CO[C@H]1C[C@@H]2CC[C@@H](C)[C@@](O)(O2)C(=O)C(=O)N2CCCC[C@H]2C(=O)O[C@H]([C@H](C)C[C@@H]2CC[C@@H](OCCO)[C@H](OC)C2)CC(=O)[C@H](C)/C=C(\C)[C@@H](O)[C@@H](OC)C(=O)[C@H](C)C[C@H](C)/C=C/C=C/C=C/1C` [everolimus] + NC(=O)Nc1cc(-c2cccc(F)c2)sc1C(=O)N[C@H]1CCCNC1 [AZD7762] (first compound 0.02 µM, partner dose 0.02 µM) the “cleaved PARP positive nuclei fraction” value was 391%. `CO[C@H]1C[C@@H]2CC[C@@H](C)[C@@](O)(O2)C(=O)C(=O)N2CCCC[C@H]2C(=O)O[C@H]([C@H](C)C[C@@H]2CC[C@@H](OCCO)[C@H](OC)C2)CC(=O)[C@H](C)/C=C(\C)[C@@H](O)[C@@H](OC)C(=O)[C@H](C)C[C@H](C)/C=C/C=C/C=C/1C` [everolimus] + O=C(Nc1ccccc1)c1cc([N+](=O)[O-])ccc1Cl [GW9662] (first compound 0.02 µM, partner dose 2 µM) was tested, and the “cleaved PARP positive nuclei fraction” value was 193%. `CO[C@H]1C[C@@H]2CC[C@@H](C)[C@@](O)(O2)C(=O)C(=O)N2CCCC[C@H]2C(=O)O[C@H]([C@H](C)C[C@@H]2CC[C@@H](OCCO)[C@H](OC)C2)CC(=O)[C@H](C)/C=C(\C)[C@@H](O)[C@@H](OC)C(=O)[C@H](C)C[C@H](C)/C=C/C=C/C=C/1C` [everolimus] + O=C1NC(=O)/C(=C/c2ccc(-c3ccc(F)cc3O)o2)S1 [AS252424] (first compound 0.02 µM, partner dose 1 µM) was tested, and the “cleaved PARP positive nuclei fraction” value was 303%. With `O=C(O)[C@@H]1[O][Sb](=[O])([O][Sb]2(=[O])[O][C@H]([C@H](O)CO)[C@H](O)[C@H](C(=O)O)[O]2)[O][C@H]([C@H](O)CO)[C@@H]1O` (stereo not given in full) [stibogluconate] + Clc1ccc(Nc2nnc(Cc3ccncc3)c3ccccc23)cc1 [vatalanib] (first compound 2 µM, partner dose 2 µM) the “cleaved PARP positive nuclei fraction” value was 111%. With `CO[C@H]1C[C@@H]2CC[C@@H](C)[C@@](O)(O2)C(=O)C(=O)N2CCCC[C@H]2C(=O)O[C@H]([C@H](C)C[C@@H]2CC[C@@H](OCCO)[C@H](OC)C2)CC(=O)[C@H](C)/C=C(\C)[C@@H](O)[C@@H](OC)C(=O)[C@H](C)C[C@H](C)/C=C/C=C/C=C/1C` [everolimus] + O=C(CCCCCCC(=O)Nc1ccccc1)NO [vorinostat] (first compound 0.02 µM, partner dose 0.08 µM) the “cleaved PARP positive nuclei fraction” value was 530%. With `CO[C@H]1C[C@@H]2CC[C@@H](C)[C@@](O)(O2)C(=O)C(=O)N2CCCC[C@H]2C(=O)O[C@H]([C@H](C)C[C@@H]2CC[C@@H](OCCO)[C@H](OC)C2)CC(=O)[C@H](C)/C=C(\C)[C@@H](O)[C@@H](OC)C(=O)[C@H](C)C[C@H](C)/C=C/C=C/C=C/1C` [everolimus] + Clc1ccc(Nc2nnc(Cc3ccncc3)c3ccccc23)cc1 [vatalanib] (first compound 0.02 µM, partner dose 2 µM) the “cleaved PARP positive nuclei fraction” value was 142%. In the case of `CO[C@H]1C[C@@H]2CC[C@@H](C)[C@@](O)(O2)C(=O)C(=O)N2CCCC[C@H]2C(=O)O[C@H]([C@H](C)C[C@@H]2CC[C@@H](OCCO)[C@H](OC)C2)CC(=O)[C@H](C)/C=C(\C)[C@@H](O)[C@@H](OC)C(=O)[C@H](C)C[C@H](C)/C=C/C=C/C=C/1C` [everolimus] + O=C(O)c1ccc2c(c1)nc(Nc1cccc(Cl)c1)c1ccncc12 [CX4945] (first compound 0.02 µM, partner dose 0.4 µM), the “cleaved PARP positive nuclei fraction” value is reported as 162%. `CO[C@H]1C[C@@H]2CC[C@@H](C)[C@@](O)(O2)C(=O)C(=O)N2CCCC[C@H]2C(=O)O[C@H]([C@H](C)C[C@@H]2CC[C@@H](OCCO)[C@H](OC)C2)CC(=O)[C@H](C)/C=C(\C)[C@@H](O)[C@@H](OC)C(=O)[C@H](C)C[C@H](C)/C=C/C=C/C=C/1C` [everolimus] + CNC(=O)c1cc(Oc2ccc(NC(=O)Nc3ccc(Cl)c(C(F)(F)F)c3)cc2)ccn1 [sorafenib] (first compound 0.02 µM, partner dose 0.4 µM) was tested, and the “cleaved PARP positive nuclei fraction” value was 328%.
